# Results of single-concentration screens

The values are deposited in ChEMBL (CHEMBL3988442, “University of Dundee, Small-Polar-MMV Screening Library” (2021)).

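Whole-parasite assay of Trypanosoma brucei over 72 hours; the read-out is not stated. Compounds at 30 µM. Higher reads as stronger inhibition (inferred: compounds with an IC50 in retests scored well above the rest). Values scatter widely below zero; nearly all retest evidence comes from the higher of the two concentrations used. Size under these conditions: about 64,000 compounds, about 940 of them at 50% or above in at least one test.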

Each number is a percent effect as filed. The record does not define 0% and 100%; most values in the screen are far below 50% and negative numbers occur (in some assays of this library far below -100). Compounds were drawn at random from those tested, without regard to their results.

* CCn1c(=O)n(Cc2nc(C3CC3)no2)c2ccccc21 : -18.01%
* CC(=O)N1CC(c2ccnc(Nc3ccc(C)cn3)n2)C1 : -29.59%
* Cn1cnc2c1CCN(CCS(=O)(=O)c1ccccc1)C2 : -16.39%
* NC(=O)NC(=O)CCSc1ccccc1Cl : -10.22%
* O=C(N1CCCC1)N1CCC2(CC(=O)N(c3ccc4c(c3)OCO4)C2)C1 (configuration not stated) : -31.19%
* Cc1csc(CNC(=O)N(C)Cc2nnc3n2CCC3)n1 : -72.56%
* CCOc1cccc(NC(=O)c2cc[nH]n2)n1 : -18.59%
* CCCC(=O)N(Cc1ccncc1)C(C)CC (configuration not stated) : 5.127%
* CN(C)CC1(O)CCCN(C(=O)Cc2ccc(Cl)c(Cl)c2)C1 (configuration not stated) : -53.23%
* CCC1c2ccsc2CCN1C(=O)NCc1ccccn1 (configuration not stated) : -3.622%
* CC(=O)NC(Cc1c[nH]c2cc(F)ccc12)C(=O)Nc1nncs1 (configuration not stated) : -48.54%
* c1ccc(CNC2CCc3ncnn3C2)nc1 (configuration not stated) : -13.51%
* COc1cccc(C(=O)N2CCN(C(=O)CCCc3cn[nH]c3)CC2)c1 : -12.78%
* O=C(O)C(F)(F)F.[H][C@]12CCC[C@@]1(COCc1ccccn1)CN(S(=O)(=O)N(C)C)C2 : -55.09%
* O=C(NCCO)Nc1cccc(Cl)c1SC(F)F : -31.79%
* [H][C@@]12CN(Cc3ccccn3)C(=O)N1CCN(C1CCOCC1)C2 : 14.86%
* Cc1cc(C[S+]([O-])CC(=O)NCc2ccccc2)no1 (configuration not stated) : -0.5304%
* O=S(=O)(Cc1ccccc1F)Cc1nnnn1C1CC1 : -29.32%
* CNC(=O)c1cccc(NC(=O)NCc2ccccc2)c1C : -39.44%
* COC(=O)CCCn1ccnc1-c1ccccc1 : -13.08%
* CNC(=O)C1(CCCc2cnccn2)CCN1CCc1ccccc1 (configuration not stated) : -16.31%
* COc1ccc(Cl)cc1CCNC(=O)NCc1ccncc1 : -19.98%
* Cn1cc(CN2CCC(F)(F)C3(CCN(c4cccnc4)C3)C2)cn1.O=C(O)C(F)(F)F.O=C(O)C(F)(F)F (configuration not stated) : 3.133%
* Cn1nc(CNC(=O)c2cccc(C(F)(F)F)c2)c2c1CCOC2 : 1.538%
* Cc1nc(-c2ccsc2)ccc1C(=O)NCCN1CCN(C)CC1 : 10.61%
* Fc1cccc(-c2nnn3c2COCC(CNCc2nccs2)C3)c1.O=C(O)C(F)(F)F (configuration not stated) : -53.66%
* [H][C@]12CCCC[C@]1([H])N(C(=O)C1CCOCC1)CC[C@@]2(O)c1ccccc1 : -8.656%
* O=S(=O)(Cc1cccc(Cl)c1)CC(O)Cn1cccn1 (configuration not stated) : -29.47%
* O=C1CN(Cc2nnc(-c3ccc(Br)cc3)o2)CCN1 : -25.88%
* Cl.c1cc(CNCc2ccnc(N3CCOCC3)c2)c2c(c1)OCO2 : -12.19%
* Cc1ccc(CC(=O)N2CCN(C3CCOC3=O)CC2)cc1 (configuration not stated) : -16.85%
* CC(C)N1CCC(c2cnc(-c3cncnc3)cn2)CC1 : -13.71%
* CCc1ccc(OCCN(C)C(=O)c2ccncc2Cl)cc1 : -1.703%
* Cc1ccc(CNC[C@H]2Cn3cc(-c4ccccc4)nc3CO2)cc1 : 3.928%
* CC(C)(C)c1nc(CNc2ccccc2SCCC(N)=O)cs1 : -30.66%
* CC(C)NC(=O)c1cc2c(nc1N(C)C)CCN(S(=O)(=O)C1CC1)CC2 : -25.7%
* Cc1cc(C)n(CC2CCCN2Cc2cscn2)n1 (configuration not stated) : -0.435%
* O=C(O)C(F)(F)F.[H][C@]12CCN(Cc3ccco3)C[C@@]1([H])OCCN(C(=O)c1ccsc1)C2 : -78.45%
* COC(=O)c1ccc(N2CCN(C(=O)c3cnn(C)c3)C(C)C2)cc1 (configuration not stated) : 44.34%
* Cc1nc[nH]c1C(=O)N1CCC2(CN(C)C(=O)O2)C1 (configuration not stated) : -7.271%
* Cc1ccsc1[C@@H]1CCN(C(=O)CCc2cc(O)no2)C[C@H]1O : -38.18%
* Cc1ccc(N2CCCC(NCc3ccc(C)o3)C2)nn1 (configuration not stated) : 1.356%
* O=C1CN(CC[C@@H](O)c2ccccc2)CCN1c1ccccc1Cl : 5.55%
* O=C(CCNc1ccccc1)NC1CCN(C(=O)C2CCCCC2)CC1 : 8.887%
* CS(=O)(=O)N1C[C@@H](O)[C@H](N2CCN(c3ccccc3)CC2)C1 : -40.2%
* COc1cccc(CNCc2ccccc2Cl)c1O : -44.61%
* CCSCCC(C)N(C)C(=O)c1ccc(C)o1 (configuration not stated) : -23.38%
* [H][C@@]12C[C@H](C(=O)N(C)C)[C@@]([H])(CN(S(=O)(=O)c3ccccc3)C1)O2 : -9.406%
* Cc1nc(C)n(CC2CN(CCn3cccn3)CCO2)n1 (configuration not stated) : -45.38%
* O=C(c1cccnc1N1CCOCC1)N1CCCC1Cn1cccn1 (configuration not stated) : 2.305%
* Oc1ccc(Cl)cc1CNCc1cccc(C(F)(F)F)c1 : -10.14%
* [H][C@@]12C[C@H](C(=O)N3CCOCC3)[C@@]([H])(CN(C(=O)NCC3CCCCC3)C1)O2 : -32.9%

Some entries from above, unchanged:

SMILES,Percent Effect
COc1cccc(C(=O)N2CCN(C(=O)CCCc3cn[nH]c3)CC2)c1,-12.78%
O=C1CN(CC[C@@H](O)c2ccccc2)CCN1c1ccccc1Cl,5.55%
O=C(N1CCCC1)N1CCC2(CC(=O)N(c3ccc4c(c3)OCO4)C2)C1 (configuration not stated),-31.19%